This assay deals with human tissue factor (hTF), purified, construct not stated (human) (UniProt P13726). Description: ELISA with culture supernatant.

Protein sequences, listed by entry. Tags and fused reporters are not part of them. Lines headed by an entry give the natural chain unless they say otherwise; changes in a name come on top.
UniProt P13726: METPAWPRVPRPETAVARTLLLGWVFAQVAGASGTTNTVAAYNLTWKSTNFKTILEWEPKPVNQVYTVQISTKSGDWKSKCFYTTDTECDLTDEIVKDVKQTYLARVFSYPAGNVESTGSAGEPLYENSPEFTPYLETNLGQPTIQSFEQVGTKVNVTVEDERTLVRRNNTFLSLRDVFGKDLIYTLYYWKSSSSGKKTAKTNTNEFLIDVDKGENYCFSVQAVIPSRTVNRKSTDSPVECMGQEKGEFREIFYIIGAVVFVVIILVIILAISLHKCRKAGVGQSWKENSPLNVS

No constants are given. Whether binding was seen depends on the method and setting. Some entries that bind do so weakly or less than the wild type.

B1: anti-hTF human chimeric antibody (No. 1849) (antibody, human IgG1, kappa, V domains shown)
VH: EVQLVESGGGLVQSGRSLKLSCAASGFTFSDYNMAWIRQAPKKGLEWVAAIIYDGTRTYYRDSVRGRFTISRDNAKSTLYLQVDSLRSEDTATYYCATGDSYTNFAYWGQGTLVTVSS
VL: EIVLTQSPTTMAASPGEKVTLTCRASSSLSYMHWYQQRSGTSPKLWIYETSKLASGVPNRFSGSGSGTSFSLTIDSMETEDAATYYCQQGNSYPRTFGGGTKLELKR
Consider B1, for which the binding entry is “binds”.
